Reference: the supplement of paper PMC12067093, “Discovery and optimisation of a covalent ligand for TRIM25 and its application to targeted protein ubiquitination” (Chemical Science, 2025)
The other results are listed elsewhere or left out.

By UniProt entry, the sequences of proteins in these tests, tags left out. Where a name states a change or a piece, a line headed by the entry shows the natural chain unless it says otherwise.
UniProt Q92616, whole entry, looked up: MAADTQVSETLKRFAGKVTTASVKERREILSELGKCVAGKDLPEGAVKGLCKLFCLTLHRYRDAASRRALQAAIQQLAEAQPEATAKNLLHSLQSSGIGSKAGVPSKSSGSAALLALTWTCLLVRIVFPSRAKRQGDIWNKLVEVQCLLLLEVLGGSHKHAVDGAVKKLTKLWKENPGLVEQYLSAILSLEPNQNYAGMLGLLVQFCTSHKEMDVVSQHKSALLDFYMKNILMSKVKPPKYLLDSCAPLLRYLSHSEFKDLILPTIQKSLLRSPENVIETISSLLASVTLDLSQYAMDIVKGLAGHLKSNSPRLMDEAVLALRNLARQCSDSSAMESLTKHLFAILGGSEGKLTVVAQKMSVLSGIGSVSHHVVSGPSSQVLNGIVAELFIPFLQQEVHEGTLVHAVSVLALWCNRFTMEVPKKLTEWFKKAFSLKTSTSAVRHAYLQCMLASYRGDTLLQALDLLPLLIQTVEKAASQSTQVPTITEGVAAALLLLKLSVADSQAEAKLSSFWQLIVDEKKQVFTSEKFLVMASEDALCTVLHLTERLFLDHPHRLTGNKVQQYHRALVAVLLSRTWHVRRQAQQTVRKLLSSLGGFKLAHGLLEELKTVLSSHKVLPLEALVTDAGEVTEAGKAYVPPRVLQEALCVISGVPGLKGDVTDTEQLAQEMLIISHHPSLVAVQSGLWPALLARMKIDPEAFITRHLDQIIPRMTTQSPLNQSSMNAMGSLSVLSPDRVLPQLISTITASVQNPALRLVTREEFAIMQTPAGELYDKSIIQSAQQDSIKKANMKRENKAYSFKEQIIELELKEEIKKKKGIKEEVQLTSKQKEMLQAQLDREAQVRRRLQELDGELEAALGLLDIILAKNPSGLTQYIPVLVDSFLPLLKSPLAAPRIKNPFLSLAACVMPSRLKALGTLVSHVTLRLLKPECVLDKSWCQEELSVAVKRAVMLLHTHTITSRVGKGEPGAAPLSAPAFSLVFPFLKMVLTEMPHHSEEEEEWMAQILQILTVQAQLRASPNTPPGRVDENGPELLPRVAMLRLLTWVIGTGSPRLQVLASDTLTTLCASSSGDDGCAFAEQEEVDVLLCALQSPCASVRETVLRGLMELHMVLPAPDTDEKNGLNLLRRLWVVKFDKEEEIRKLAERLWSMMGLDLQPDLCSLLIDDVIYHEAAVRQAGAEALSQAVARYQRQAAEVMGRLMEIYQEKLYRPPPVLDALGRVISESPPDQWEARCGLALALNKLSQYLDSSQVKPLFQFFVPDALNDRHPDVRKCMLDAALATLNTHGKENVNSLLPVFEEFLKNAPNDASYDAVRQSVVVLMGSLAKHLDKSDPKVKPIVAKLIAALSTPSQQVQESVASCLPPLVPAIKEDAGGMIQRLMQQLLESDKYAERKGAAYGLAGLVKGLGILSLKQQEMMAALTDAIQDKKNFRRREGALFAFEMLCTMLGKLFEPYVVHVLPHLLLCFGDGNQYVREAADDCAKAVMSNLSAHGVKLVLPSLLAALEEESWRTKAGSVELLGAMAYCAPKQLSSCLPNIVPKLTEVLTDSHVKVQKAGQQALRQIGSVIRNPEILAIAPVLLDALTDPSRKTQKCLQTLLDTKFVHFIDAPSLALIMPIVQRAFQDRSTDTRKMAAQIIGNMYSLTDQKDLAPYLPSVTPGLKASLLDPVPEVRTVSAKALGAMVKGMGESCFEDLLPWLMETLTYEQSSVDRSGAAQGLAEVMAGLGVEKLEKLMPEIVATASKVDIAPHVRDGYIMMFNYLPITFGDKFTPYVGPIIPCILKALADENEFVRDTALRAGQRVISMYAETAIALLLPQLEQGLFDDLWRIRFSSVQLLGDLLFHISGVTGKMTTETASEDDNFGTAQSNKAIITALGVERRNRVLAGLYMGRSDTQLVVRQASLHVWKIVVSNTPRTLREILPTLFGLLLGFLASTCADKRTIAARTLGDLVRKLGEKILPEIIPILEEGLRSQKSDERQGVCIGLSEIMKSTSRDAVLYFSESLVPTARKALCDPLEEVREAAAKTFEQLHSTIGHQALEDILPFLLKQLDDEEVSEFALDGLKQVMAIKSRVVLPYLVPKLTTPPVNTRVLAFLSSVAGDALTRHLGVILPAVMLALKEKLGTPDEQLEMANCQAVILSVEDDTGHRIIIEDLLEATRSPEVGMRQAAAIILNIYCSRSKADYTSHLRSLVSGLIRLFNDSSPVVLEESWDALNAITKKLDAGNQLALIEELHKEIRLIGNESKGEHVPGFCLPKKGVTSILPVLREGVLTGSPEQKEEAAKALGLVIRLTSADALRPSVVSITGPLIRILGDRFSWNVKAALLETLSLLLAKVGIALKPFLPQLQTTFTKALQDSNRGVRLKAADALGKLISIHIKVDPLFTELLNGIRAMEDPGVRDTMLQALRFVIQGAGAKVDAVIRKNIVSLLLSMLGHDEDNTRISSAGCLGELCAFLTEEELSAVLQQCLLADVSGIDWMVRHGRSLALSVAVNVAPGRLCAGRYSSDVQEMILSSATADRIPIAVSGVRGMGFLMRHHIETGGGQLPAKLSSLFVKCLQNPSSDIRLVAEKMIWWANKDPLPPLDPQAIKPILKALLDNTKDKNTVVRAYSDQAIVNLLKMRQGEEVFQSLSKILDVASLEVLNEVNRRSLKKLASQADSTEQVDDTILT
UniProt Q99684: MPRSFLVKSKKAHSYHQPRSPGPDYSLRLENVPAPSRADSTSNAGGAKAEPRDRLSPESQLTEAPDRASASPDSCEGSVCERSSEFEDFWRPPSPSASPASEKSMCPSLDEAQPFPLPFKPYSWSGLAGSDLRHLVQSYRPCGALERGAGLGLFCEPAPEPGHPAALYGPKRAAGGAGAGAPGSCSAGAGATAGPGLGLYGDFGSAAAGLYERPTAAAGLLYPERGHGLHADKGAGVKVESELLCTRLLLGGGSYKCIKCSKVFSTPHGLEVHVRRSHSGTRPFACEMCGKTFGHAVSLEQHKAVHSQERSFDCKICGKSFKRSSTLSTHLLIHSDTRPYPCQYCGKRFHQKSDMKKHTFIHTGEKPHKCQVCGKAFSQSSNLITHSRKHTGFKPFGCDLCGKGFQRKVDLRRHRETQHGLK
UniProt Q10471: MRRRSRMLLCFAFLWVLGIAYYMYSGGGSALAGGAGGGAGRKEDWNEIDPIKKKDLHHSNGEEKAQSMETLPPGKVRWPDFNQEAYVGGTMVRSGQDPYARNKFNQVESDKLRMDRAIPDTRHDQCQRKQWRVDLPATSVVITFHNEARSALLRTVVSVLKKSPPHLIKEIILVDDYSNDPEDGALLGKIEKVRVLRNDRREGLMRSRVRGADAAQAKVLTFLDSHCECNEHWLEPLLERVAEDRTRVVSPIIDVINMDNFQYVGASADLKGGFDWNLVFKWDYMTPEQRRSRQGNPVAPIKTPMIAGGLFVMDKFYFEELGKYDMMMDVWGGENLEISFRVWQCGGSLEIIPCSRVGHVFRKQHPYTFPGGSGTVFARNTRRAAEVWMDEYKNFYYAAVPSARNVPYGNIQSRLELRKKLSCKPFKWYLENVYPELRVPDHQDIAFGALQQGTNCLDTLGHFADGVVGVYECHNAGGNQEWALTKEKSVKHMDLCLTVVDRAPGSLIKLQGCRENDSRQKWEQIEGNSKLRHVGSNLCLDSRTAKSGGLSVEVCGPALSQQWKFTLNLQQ
UniProt Q8TB36: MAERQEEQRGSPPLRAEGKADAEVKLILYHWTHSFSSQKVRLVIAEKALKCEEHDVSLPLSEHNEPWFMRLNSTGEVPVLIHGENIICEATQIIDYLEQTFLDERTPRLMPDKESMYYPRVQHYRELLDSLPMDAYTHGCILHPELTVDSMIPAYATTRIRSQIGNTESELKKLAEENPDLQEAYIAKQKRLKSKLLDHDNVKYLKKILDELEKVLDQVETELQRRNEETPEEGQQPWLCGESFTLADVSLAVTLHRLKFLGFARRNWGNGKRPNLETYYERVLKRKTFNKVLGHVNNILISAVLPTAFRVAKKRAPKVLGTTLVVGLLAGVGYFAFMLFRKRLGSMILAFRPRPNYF
UniProt Q9Y2X7: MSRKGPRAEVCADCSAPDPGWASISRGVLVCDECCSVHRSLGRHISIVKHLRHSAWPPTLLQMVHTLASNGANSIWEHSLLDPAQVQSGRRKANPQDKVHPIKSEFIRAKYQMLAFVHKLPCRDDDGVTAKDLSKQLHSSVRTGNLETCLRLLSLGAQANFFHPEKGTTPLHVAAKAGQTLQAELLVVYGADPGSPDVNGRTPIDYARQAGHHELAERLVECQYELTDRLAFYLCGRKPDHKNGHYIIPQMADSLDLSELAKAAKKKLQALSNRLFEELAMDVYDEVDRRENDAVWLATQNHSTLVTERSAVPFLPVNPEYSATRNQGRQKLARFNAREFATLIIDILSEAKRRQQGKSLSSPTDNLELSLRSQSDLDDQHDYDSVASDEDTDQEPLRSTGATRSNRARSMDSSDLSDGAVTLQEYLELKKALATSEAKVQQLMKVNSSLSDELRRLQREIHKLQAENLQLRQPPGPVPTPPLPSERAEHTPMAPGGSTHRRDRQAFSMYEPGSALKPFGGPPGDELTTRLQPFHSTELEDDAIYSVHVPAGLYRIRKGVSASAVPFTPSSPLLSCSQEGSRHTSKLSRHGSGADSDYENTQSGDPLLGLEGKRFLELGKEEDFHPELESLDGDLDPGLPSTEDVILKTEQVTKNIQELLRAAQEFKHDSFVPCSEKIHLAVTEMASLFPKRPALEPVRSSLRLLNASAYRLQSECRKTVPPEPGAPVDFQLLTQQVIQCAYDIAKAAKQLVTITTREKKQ
UniProt P50395: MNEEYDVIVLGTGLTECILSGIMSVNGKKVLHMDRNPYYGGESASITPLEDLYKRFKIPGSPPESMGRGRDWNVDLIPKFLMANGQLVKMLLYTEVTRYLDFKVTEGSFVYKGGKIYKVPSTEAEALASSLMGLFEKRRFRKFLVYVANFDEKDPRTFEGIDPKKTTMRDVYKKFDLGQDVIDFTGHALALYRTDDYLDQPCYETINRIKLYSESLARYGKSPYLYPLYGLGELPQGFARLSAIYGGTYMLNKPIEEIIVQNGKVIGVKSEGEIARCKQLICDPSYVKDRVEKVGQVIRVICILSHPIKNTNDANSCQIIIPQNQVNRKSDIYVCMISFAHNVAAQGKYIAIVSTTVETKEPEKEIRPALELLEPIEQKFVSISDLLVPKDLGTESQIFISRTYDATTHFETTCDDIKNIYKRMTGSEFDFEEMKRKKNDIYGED
UniProt P41250: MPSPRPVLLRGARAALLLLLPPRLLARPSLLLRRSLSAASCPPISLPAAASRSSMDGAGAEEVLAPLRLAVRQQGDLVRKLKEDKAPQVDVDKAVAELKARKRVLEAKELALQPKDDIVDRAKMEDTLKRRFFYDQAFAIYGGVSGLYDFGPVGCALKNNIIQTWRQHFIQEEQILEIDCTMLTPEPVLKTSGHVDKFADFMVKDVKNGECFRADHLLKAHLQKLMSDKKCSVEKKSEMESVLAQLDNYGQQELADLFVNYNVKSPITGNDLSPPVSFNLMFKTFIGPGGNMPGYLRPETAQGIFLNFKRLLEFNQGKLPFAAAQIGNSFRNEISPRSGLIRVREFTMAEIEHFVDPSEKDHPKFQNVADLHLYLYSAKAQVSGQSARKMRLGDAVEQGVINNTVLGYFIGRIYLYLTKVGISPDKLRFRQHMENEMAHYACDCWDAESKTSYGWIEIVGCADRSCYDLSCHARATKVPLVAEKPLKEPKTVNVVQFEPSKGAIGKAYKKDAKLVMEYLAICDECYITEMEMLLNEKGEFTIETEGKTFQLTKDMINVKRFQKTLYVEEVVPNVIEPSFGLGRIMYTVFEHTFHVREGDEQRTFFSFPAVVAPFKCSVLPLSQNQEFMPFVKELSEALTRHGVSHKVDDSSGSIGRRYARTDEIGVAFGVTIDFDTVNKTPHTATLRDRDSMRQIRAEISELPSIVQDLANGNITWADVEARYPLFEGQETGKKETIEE
UniProt Q01415: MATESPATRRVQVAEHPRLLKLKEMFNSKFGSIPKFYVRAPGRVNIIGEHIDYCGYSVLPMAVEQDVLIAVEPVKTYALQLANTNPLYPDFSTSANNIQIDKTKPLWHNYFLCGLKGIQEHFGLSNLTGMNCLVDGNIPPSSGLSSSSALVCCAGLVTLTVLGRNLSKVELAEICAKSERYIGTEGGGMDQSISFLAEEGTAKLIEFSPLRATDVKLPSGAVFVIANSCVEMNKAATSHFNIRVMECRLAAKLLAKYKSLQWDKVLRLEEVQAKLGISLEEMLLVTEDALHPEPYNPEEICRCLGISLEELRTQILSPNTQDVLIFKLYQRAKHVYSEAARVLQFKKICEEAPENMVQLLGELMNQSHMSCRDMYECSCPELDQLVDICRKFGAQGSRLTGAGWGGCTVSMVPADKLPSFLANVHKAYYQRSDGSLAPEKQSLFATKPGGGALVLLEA

Compound: CC1Cc2ccccc2N1C(=O)C1CCCN(C1)C(=O)CCl (mixture of isomers) [TRIM25 ligand 11 (diastereomer mixture)]
Test: probe-labelled cysteine peptide fold change vs DMSO (competition) (log2 fold change); higher = less target engagement (more negative = stronger competition)
Settings: THP-1, incubation time: 4 h
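Further: competitive chemoproteomic profiling in live THP-1 cells with an iodoacetamide desthiobiotin (IA-DTB) probe, comparing probe-labelled peptide intensities in compound-treated cells against DMSO-treated controls.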

Target | probe-labelled cysteine peptide fold change (10 µM) | probe-labelled cysteine peptide fold change (50 µM)
GIPC1_O14908_100_LPTAEVMFCTLNTHK (UniProt O14908) | 0.231 | 0.118
GANAB_Q14697_423_DEADVLEVDQGFDDHNLPCDVIWLDIEHADGKR (UniProt Q14697) | 0.162 | -0.111
GATD1_Q8NB37_122_ILQHFHSESKPICAVGHGVAALCCATNEDR (UniProt Q8NB37) | -0.0391 | -0.0597
GFER_P55789_165_ACFTQWLCHLHNEVNR (UniProt P55789) | 0.00107 | 0.139
GCN1_Q92616_1781_FTPYVGPIIPCILK (UniProt Q92616) | 0.12 | 0.17
GATD3B_A0A0B4J2D5_244_VVTTPAFMCETALHYIHDGIGAMVR | 0.00433 | 
GFI1_Q99684_398_KHTGFKPFGCDLCGK (UniProt Q99684) | -0.114 | 0.02
GCAT_O75600_106_FICGTQSIHK (UniProt O75600) | 0.176 | -0.0443
GINS4_Q9BRT9_53_FAPELLESKPEIVECVMEQLEHMEENLRR (UniProt Q9BRT9) | -0.0824 | -0.0223
GBF1_Q92538_1707_IDCFLPHLR (UniProt Q92538) | 0.268 | 0.143
GALNT2_Q10471_227+229_VLTFLDSHCECNEHWLEPLLER (UniProt Q10471) | -0.0307 | -0.011
GAMT_Q14353_169_LLKPGGVLTYCNLTSWGELMK (UniProt Q14353) | 0.0945 | 0.125
GCA_P28676_182_IFFDDYVACCVK (UniProt P28676) | 0.0461 | 0.0583
GBF1_Q92538_613_KETARPSCEIVDGTR (UniProt Q92538) | -0.0436 | -0.271
GATM_P50440_131_AVAEIEEMCNILK (UniProt P50440) | 0.0369 | 0.0694
GBF1_Q92538_1414_DAAHITPDNFELCVK (UniProt Q92538) | 0.359 | 0.38
GDAP1_Q8TB36_51_CEEHDVSLPLSEHNEPWFMR (UniProt Q8TB36) | 0.195 | 0.0966
GCLC_P48506_295_GYVSDIDCR (UniProt P48506) | 0.0316 | 0.199
GAPVD1_Q14C86_1129_LALCSADSVAFPVLTHSTR (UniProt Q14C86) | 0.0263 | -0.0952
GIT1_Q9Y2X7_674_HDSFVPCSEK (UniProt Q9Y2X7) | 0.0795 | -0.235
GALNT2_Q10471_496_HMDLCLTVVDRAPGSLIK (UniProt Q10471) | -0.074 | -0.154

Target | probe-labelled cysteine peptide fold change (10 µM) | probe-labelled cysteine peptide fold change (50 µM)
GCLM_P48507_35_CPSTHSEELHDCIQK (UniProt P48507) | 0.12 | 0.0298
GALNT1_Q10472_442_NVETNQCLDNMAR (UniProt Q10472) | 0.186 | 0.0591
GAS2L1_Q99501_276_CSSTAHRPPQPR (UniProt Q99501) | 0.176 | -0.0492
GCN1_Q92616_932_LLKPECVLDK (UniProt Q92616) | -0.0621 | -0.00193
GDI2_P50395_302_VICILSHPIK (UniProt P50395) | -0.0268 | -0.00641
GALNT1_Q10472_214_GQVITFLDAHCECTVGWLEPLLAR (UniProt Q10472) | 0.16 | 0.101
GAPDH_P04406_247_VPTANVSVVDLTCR (UniProt P04406) | -0.0332 | 0.00651
GEMIN5_Q8TEQ6_501_KTVYTLAWGPPVPPMSLGGEGDRPSLALYSCGGEGIVLQHNPWK (UniProt Q8TEQ6) | -0.0276 | -0.185
GALK1_P51570_243_RQCEEVAR (UniProt P51570) | -0.0598 | -0.0515
GFM2_Q969S9_329_VTLAQTAVPVLCGSALK (UniProt Q969S9) | -0.00993 | 0.0905
GATB_O75879_115_CVEAAVMTGLALNCHINKK (UniProt O75879) | -0.19 | 0.188
GCC2_Q8IWJ2_48_CTELEK (UniProt Q8IWJ2) | -0.0382 | 0.0146
GATD1_Q8NB37_216_HLVTGQNASSTVPAVQNLLFLCGSR (UniProt Q8NB37) | -0.0122 | -0.0156
GARS_P41250_616_CSVLPLSQNQEFMPFVK (UniProt P41250) | 0.0543 | -0.0554
GALK2_Q01415_349_ICEEAPENMVQLLGELMNQSHMSCR (UniProt Q01415) | 0.43 | -0.18
GGNBP2_Q9H3C7_301_TIDIAQEEVLTCLGIHLYER (UniProt Q9H3C7) | 0.0625 | 0.0445
GANAB_Q14697_47_TCEESSFCK (UniProt Q14697) | 0.106 | 0.228
GEMIN5_Q8TEQ6_1477_SHFPGCLAQEMQQQAQELLQK (UniProt Q8TEQ6) | 0.113 | 0.14
GINS1_Q14691_75_CTVAYLYDR (UniProt Q14691) | 0.027 | 0.259
GCN1_Q92616_907_NPFLSLAACVMPSR (UniProt Q92616) | -0.253 | 0.223
GCN1_Q92616_449_HAYLQCMLASYR (UniProt Q92616) | 0.0262 | 0.0277

Target | probe-labelled cysteine peptide fold change (10 µM) | probe-labelled cysteine peptide fold change (50 µM)
GALE_Q14376_330_MCEDLWR (UniProt Q14376) | -0.0942 | 0.0819
GBA_P04062_381_LFPNTMLFASEACVGSK (UniProt P04062) | 0.0348 | 0.0286
GAPDH_P04406_156_IISNASCTTNCLAPLAK (UniProt P04406) | -0.0539 | -0.0462
GALNT12_Q8IXK2_231+233_GDVLTFLDCHCECHEGWLEPLLQR (UniProt Q8IXK2) | -0.00174 | 0.188
GEMIN5_Q8TEQ6_1421_NEPEVEAEQPLCSSQSQCK (UniProt Q8TEQ6) | 0.263 | 0.0469
GALK2_Q01415_303_CLGISLEELR (UniProt Q01415) | 0.063 | 0.191
GCLC_P48506_152_LGCPGFTLPEVKPNPVEGGASK (UniProt P48506) | -0.036 | 0.127
GFI1_Q99684_155_GAGLGLFCEPAPEPGHPAALYGPK (UniProt Q99684) | -0.107 | -0.191
GEMIN4_P57678_210_SDPDACPTMPLLAMLLR (UniProt P57678) | -0.0524 | -0.394
GFM2_Q969S9_406_IYSGTIKPQLAIHNINGNCTER (UniProt Q969S9) | -0.0865 | -0.175
GIT2_Q14161_122_LPCRDDDSVTAK (UniProt Q14161) | -0.0143 | -0.063
GCC1_Q96CN9_538_LSCEELEHQHQQEADDWKQELAR (UniProt Q96CN9) | 0.049 | 0.0295
GALNT6_Q8NCL4_165_SLGPDTRPPECVDQK (UniProt Q8NCL4) | -0.024 | 0.123
GANAB_Q14697_822_RSSECMKDDPITLFVALSPQGTAQGELFLDDGHTFNYQTR (UniProt Q14697) | -0.296 | -0.0748
GARS_P41250_231_KCSVEK (UniProt P41250) | -0.148 | -0.0654
GCC2_Q8IWJ2_466_EQCENLQQEK (UniProt Q8IWJ2) | 0.0474 | 0.078
GEMIN4_P57678_382_QVVSELAECVR (UniProt P57678) | 0.0692 | -0.055
GDI2_P50395_282_QLICDPSYVK (UniProt P50395) | -0.0657 | 0.0312
GATM_P50440_410_NANSLGGGFHCWTCDVR (UniProt P50440) | 0.0413 | 0.182
GFI1_Q99684_398+401_HTGFKPFGCDLCGK (UniProt Q99684) | -0.00152 | 0.171
GCLC_P48506_615_CNQIANELCECPELLGSAFR (UniProt P48506) | -0.00817 | 0.161

Four consecutive entries already listed, quoted:
Target | probe-labelled cysteine peptide fold change (10 µM) | probe-labelled cysteine peptide fold change (50 µM)
GDAP1_Q8TB36_51_CEEHDVSLPLSEHNEPWFMR (UniProt Q8TB36) | 0.195 | 0.0966
GCLC_P48506_295_GYVSDIDCR (UniProt P48506) | 0.0316 | 0.199
GAPVD1_Q14C86_1129_LALCSADSVAFPVLTHSTR (UniProt Q14C86) | 0.0263 | -0.0952
GIT1_Q9Y2X7_674_HDSFVPCSEK (UniProt Q9Y2X7) | 0.0795 | -0.235

(list continues)

Target | probe-labelled cysteine peptide fold change (10 µM) | probe-labelled cysteine peptide fold change (50 µM)
GFI1_Q99684_342+345_SSTLSTHLLIHSDTRPYPCQYCGK (UniProt Q99684) | 0.175 | 0.0418
GANC_Q8TET4_758_TFAHWEGGCTVK (UniProt Q8TET4) | 0.0494 | 0.157
GALNT6_Q8NCL4_509_NLGTNQCLDVGENNR (UniProt Q8NCL4) | 0.354 | 0.12
GART_P22102_941_GSNAHEQALETGVTVTGCTVHFVAEDVDAGQIILQEAVPVKR (UniProt P22102) | -0.0918 | 0.156
GCN1_Q92616_1482_EAADDCAK (UniProt Q92616) | 0.0124 | -0.115
GCN1_Q92616_1275_CMLDAALATLNTHGK (UniProt Q92616) | 0.00529 | -0.0947
GATD1_Q8NB37_133_ILQHFHSESKPICAVGHGVAALCCATNEDR (UniProt Q8NB37) | -0.0626 | -0.216
GDI2_P50395_335_SDIYVCMISFAHNVAAQGK (UniProt P50395) | 0.0103 | 0.126
GBP4_Q96PP9_374_LPTDTLQELLDVHAACER (UniProt Q96PP9) | 0.216 | 0.0274
GARS_P41250_444_QHMENEMAHYACDCWDAESK (UniProt P41250) | 0.0552 | 0.0473
GEMIN5_Q8TEQ6_441_EGCLAFGTDDGK (UniProt Q8TEQ6) | 0.16 | -0.0346
GGCX_P38435_343_AAPQPSVSCVYK (UniProt P38435) | -0.0312 | 0.052
GATAD2A_Q86YP4_420_EPYMCAQCK (UniProt Q86YP4) | 0.0109 | -0.0417
GAPVD1_Q14C86_1160_NGLPDHTDPEDNEIVCFLK (UniProt Q14C86) | -0.084 | -0.00899
GAPVD1_Q14C86_1253_YFTTVCVR (UniProt Q14C86) | 0.0755 | 0.156
GARS_P41250_461_TSYGWIEIVGCADR (UniProt P41250) | 0.0856 | 0.0911
GCFC2_P16383_336_IYVENLIDCLNEK (UniProt P16383) | 0.0405 | 0.116
GIGYF1_O75420_261_GGCGEEEGR (UniProt O75420) | 0.11 | 0.15
GHDC_Q8N2G8_462_LDHCLQEASPR (UniProt Q8N2G8) | 0.29 | 0.427
GIMAP1_Q8WWP7_76_CHVEVVDTPDIFSSQVSK (UniProt Q8WWP7) | 0.278 | -0.00806
